Paper PMC7819943, “Rice protein-binding microarrays: a tool to detect cis-acting elements near promoter regions in rice”
Some of the results follow.

Target: T1, OsSMF1 (Oryza sativa, UniProt Q6ZLB0 1-436)
T1 sequence: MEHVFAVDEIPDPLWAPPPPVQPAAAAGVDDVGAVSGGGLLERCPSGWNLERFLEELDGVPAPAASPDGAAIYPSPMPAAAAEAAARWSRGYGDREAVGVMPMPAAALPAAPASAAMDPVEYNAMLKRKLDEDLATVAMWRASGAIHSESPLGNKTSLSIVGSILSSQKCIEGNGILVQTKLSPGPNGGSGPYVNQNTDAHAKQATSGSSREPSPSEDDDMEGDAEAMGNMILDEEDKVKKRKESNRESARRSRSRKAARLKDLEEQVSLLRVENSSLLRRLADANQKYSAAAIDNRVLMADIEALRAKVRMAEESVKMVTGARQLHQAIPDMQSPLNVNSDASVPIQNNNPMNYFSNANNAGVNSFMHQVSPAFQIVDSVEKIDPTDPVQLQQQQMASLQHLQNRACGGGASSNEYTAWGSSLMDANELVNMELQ
Test: protein-binding microarray (RPBM); PBS, 2% BSA, 51.3 ng/ul salmon testes DNA, 50 uM zinc acetate, 200 nM TF, 25 C, 1 h; high values mean tight binding
Settings: protein: recombinant; tags: N-terminal polyhistidine and DsRed monomer fusion (pET32a); chain copies: 2; label: CyDye5-dUTP incorporated in the synthesized complementary strand; 3' TTTTT single-stranded linker to array surface; dsDNA, one strand shown
In short: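 An Axon 4000B scanner gave the binding signal as per-feature fluorescence intensity in arbitrary units. This followed washing of a custom Agilent array that had been incubated for 1 h at 25 °C with 200 nM protein in PBS, 2% BSA, salmon testes DNA and 50 µM zinc acetate. The proteins were transcription factors fused at the N-terminus to polyhistidine and DsRed, expressed in E. coli BL21-CodonPlus and purified on Ni–NTA.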

Sequence | binding signal
TCAACGTAGTATTTGATGGTGACGTATCATAGTCTCTGTTCGGAGTCACCTAGTGCAG | 9860 fluorescence intensity (a.u.)
GATTTTATTCTATATGGCATACGCATGACAATCTAGTCAGCGGAGTCACCTAGTGCAG | 3440 fluorescence intensity (a.u.)
GGCGCCCTTGCGAGCACGTAATCCCGGCCCGGTCACCCAACGGAGTCACCTAGTGCAG | 3920 fluorescence intensity (a.u.)
AGTGCTACGTATGCGTCACATCAACGAAACCGCCCTCTAACGGAGTCACCTAGTGCAG | 7480 fluorescence intensity (a.u.)
TTCCCTCTTAGAGACGTGGATGCTCCAACAGTTGAACCAGCGGAGTCACCTAGTGCAG | 3930 fluorescence intensity (a.u.)
AAATATGAATTATGACGTAGATTGTGTTGATTTCCTTTTGCGGAGTCACCTAGTGCAG | 5170 fluorescence intensity (a.u.)
TGCTTCATTGTATTGTCTATATATAGTTGATTATAAGCCACGGAGTCACCTAGTGCAG | 3820 fluorescence intensity (a.u.)
AACCTCGATAAGTCAGTGTAGTCTAGGCGGTGACGACTCCCGGAGTCACCTAGTGCAG | 3220 fluorescence intensity (a.u.)
TTTGGTGCGAGCGAAATACCAGGATCTTTATACACATAGCCGGAGTCACCTAGTGCAG | 58000 fluorescence intensity (a.u.)
AGCTCTAGTTATCTGAGTATGACATGTGGGACCTAAGAGTCGGAGTCACCTAGTGCAG | 3600 fluorescence intensity (a.u.)
TTCCCCAACTAAACACACCCTTTATCTCTTACCCTCTGGCCGGAGTCACCTAGTGCAG | 3190 fluorescence intensity (a.u.)
AGGGCGGCAAGCTGACATGGCAGACGACGGCTCGACGGCGCGGAGTCACCTAGTGCAG | 6550 fluorescence intensity (a.u.)
GGTTGGGAACATGGACAACCGAACATAGTTCTTGGCCATGCGGAGTCACCTAGTGCAG | 30000 fluorescence intensity (a.u.)
TTAAGTACCCGGATATGACTGATAGGCCACGTATCCGTATCGGAGTCACCTAGTGCAG | 5060 fluorescence intensity (a.u.)
TCGTGTTGTGTCTTGTATATGCTGCTGATCTGAAGATATGCGGAGTCACCTAGTGCAG | 5330 fluorescence intensity (a.u.)
GCATATCTCAGACCATATGAATTGTGTTGAGCTGGCGGTTCGGAGTCACCTAGTGCAG | 4430 fluorescence intensity (a.u.)
TGACTCTTCTACACCTTCCAGGCTATCCGGAATCGGGAGGCGGAGTCACCTAGTGCAG | 3260 fluorescence intensity (a.u.)
TTCGCCTCCACCTTCATCTGCTCCACCTGCGTCACAGTCACGGAGTCACCTAGTGCAG | 3820 fluorescence intensity (a.u.)
CCTCCTCTCCTTGCAGGCGCCACGCCGCCTTTCCATCCCGCGGAGTCACCTAGTGCAG | 3240 fluorescence intensity (a.u.)
ATCTGCTTCGATGCTCACCCGTGCAGAATTGCACACGTGTCGGAGTCACCTAGTGCAG | 9170 fluorescence intensity (a.u.)
ACAATGCCGCACACACGCAGCGGTAGCATAGCCACAGCCGCGGAGTCACCTAGTGCAG | 23300 fluorescence intensity (a.u.)
GGCCCGCTCCAATGAGAAGTGGACTCGGAGCGGGATTCCCCGGAGTCACCTAGTGCAG | 3310 fluorescence intensity (a.u.)
ACTACTTGGGCATTACCTGCTCCACGTGGCCCATATAATACGGAGTCACCTAGTGCAG | 7040 fluorescence intensity (a.u.)
ATATACTATTCTCATCTGTCATACACACATCACATCTTGACGGAGTCACCTAGTGCAG | 25700 fluorescence intensity (a.u.)
CTTCTCCTCTCCCCTTGCTCAGTTCATTCAGTTGGCCTCCCGGAGTCACCTAGTGCAG | 24900 fluorescence intensity (a.u.)
GCGCATCAACAACCTTGTCGTCCATATTGGTCATCGTCAGCGGAGTCACCTAGTGCAG | 4960 fluorescence intensity (a.u.)
AAGGCATTGAATCTTACTGCCAACACATCCACCACAGCCTCGGAGTCACCTAGTGCAG | 5350 fluorescence intensity (a.u.)

Laid out differently: entries from further up
Sequence,binding signal
GGCGCCCTTGCGAGCACGTAATCCCGGCCCGGTCACCCAACGGAGTCACCTAGTGCAG,3920 fluorescence intensity (a.u.)
AGTGCTACGTATGCGTCACATCAACGAAACCGCCCTCTAACGGAGTCACCTAGTGCAG,7480 fluorescence intensity (a.u.)
TTCCCTCTTAGAGACGTGGATGCTCCAACAGTTGAACCAGCGGAGTCACCTAGTGCAG,3930 fluorescence intensity (a.u.)

The results go on.

Sequence | binding signal
ACTAGTGACCCTAATTTTCGGTTCGATATTTGAAATTTCCCGGAGTCACCTAGTGCAG | 3240 fluorescence intensity (a.u.)
ACACACACACACGTAAGTACCCATAACTCCATAAGAATAGCGGAGTCACCTAGTGCAG | 3150 fluorescence intensity (a.u.)
CAAATCTCATGTCATCTTCTCGAAGTGAGCTCCGATGACTCGGAGTCACCTAGTGCAG | 3740 fluorescence intensity (a.u.)
CCATCAACGAGCACATCTTCTCCACGGTGGACGGCATCATCGGAGTCACCTAGTGCAG | 5760 fluorescence intensity (a.u.)
GATTCCCTCCGCCGCCACCCGCGAGAGGGAGACGCCGGCGCGGAGTCACCTAGTGCAG | 3200 fluorescence intensity (a.u.)
ATAATTTGGTGTTACAGTAAACATTTGCTAATAATGGATTCGGAGTCACCTAGTGCAG | 49500 fluorescence intensity (a.u.)
CCCAACACGGCCCATGGAGGCATCCACGTTTTGAACGAGCCGGAGTCACCTAGTGCAG | 3720 fluorescence intensity (a.u.)
AACCCTAGCCACTCTCGTTTCATTGGTCTGACTTATTGGGCGGAGTCACCTAGTGCAG | 14700 fluorescence intensity (a.u.)
CCGCTGGCGGCGGAGAGTACAACGTGTACATTTTGCCCCTCGGAGTCACCTAGTGCAG | 3660 fluorescence intensity (a.u.)
GACTTCTTCCCGGCCTTTTAGCGTGCGTGGCGCTCAACACCGGAGTCACCTAGTGCAG | 10000 fluorescence intensity (a.u.)
GCAAACTGAACATACTCGTATATCGAACTGTCATAACTTCCGGAGTCACCTAGTGCAG | 3140 fluorescence intensity (a.u.)
GAGCTCAAAGCGGCGGTGCACGTGGCGAGGCAGAGCAAAGCGGAGTCACCTAGTGCAG | 3620 fluorescence intensity (a.u.)
CGAACACAGCCTAGGATGCCACGTCAGTGAAACCACCCATCGGAGTCACCTAGTGCAG | 26600 fluorescence intensity (a.u.)
TCGCACACGCGCTCACGGTACGCCGCCGCCTCGGTCCTCCCGGAGTCACCTAGTGCAG | 12300 fluorescence intensity (a.u.)
CTGCAGCAGCCGCAGCCGCCGCCGACGCGGCGGCTCTCTCCGGAGTCACCTAGTGCAG | 3360 fluorescence intensity (a.u.)
ATCACGTGTGCCACGTGTCCTTTGACCAGCGACACGTGTCCGGAGTCACCTAGTGCAG | 25800 fluorescence intensity (a.u.)
CGCCCGCACGTACGTGTCGCGAACTCGCGCCACGGCCGCGCGGAGTCACCTAGTGCAG | 4720 fluorescence intensity (a.u.)
CACACACAGTAGCTCGTGCTGACTAAGCGGCTGACCGGTCCGGAGTCACCTAGTGCAG | 11800 fluorescence intensity (a.u.)
GGCCGTTTGCAAGGCGTGGCTGGTTGGGTGGATGGATGGACGGAGTCACCTAGTGCAG | 3380 fluorescence intensity (a.u.)
TGTTTCAAATGCCACATAAGCGTCACGTCAACCCCACAAACGGAGTCACCTAGTGCAG | 8120 fluorescence intensity (a.u.)
AGCTAGCTCGTCTCCTCGTCCGCCTCGCGCCTGCTGGAGACGGAGTCACCTAGTGCAG | 3300 fluorescence intensity (a.u.)
ACCAGCCTTTACAAAACCACGTGGTTACCTCATGATTTACCGGAGTCACCTAGTGCAG | 4580 fluorescence intensity (a.u.)
CTTCTTCTTTTGCGTGGGGAGCGATTAACACGCGTGCGTCCGGAGTCACCTAGTGCAG | 4000 fluorescence intensity (a.u.)
CAAACCTTGCAGTGTGCAACTATCAGCTGTTGTTTTACAGCGGAGTCACCTAGTGCAG | 3810 fluorescence intensity (a.u.)
ACAGGTGCACGCACACGTGCCGCATCAACCAGACAGCCACCGGAGTCACCTAGTGCAG | 3360 fluorescence intensity (a.u.)
AGTTTCTTGCTCCCCACTCCCGCGCCGCGTCACGTCACGCCGGAGTCACCTAGTGCAG | 9780 fluorescence intensity (a.u.)
GTTTGCCCACACAGCCGCCGCTTCCTCTCCCAGGCCGCGTCGGAGTCACCTAGTGCAG | 12900 fluorescence intensity (a.u.)
